# From PubChem BioAssay AID493014 (National Center for Advancing Translational Sciences (NCATS), 2011)
# Among all 340,000 compounds or so, about 170 (0.05%) were called active. This list was built around the results that the source calls inconclusive (neither active nor inactive); the mix of calls is not that of the screen. Calls come from the whole dose curve; as a rule, active = well fitted inhibition curve with a large enough effect in the signal ratio, with a control signal flat (not every such curve was filed as active); inconclusive = small, poorly fitted or top-dose-only effect, or effect the other way, or a change in a side signal; inactive = flat fitted curve, though single readings scatter; the % refers to the signal ratio. A potency beside an inconclusive call is a rough fit, not a confirmed value.
# Experiment: qHTS Assay to Find Inhibitors of Chronic Active B-Cell Receptor Signaling;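 for activity change, negative = inhibition: plate controls were basal doxycycline-induced cells for no effect and cells given 10 µM MG132 for full effect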
# Conditions: ABC-DLBCL IkBa-CBG/CBR reporter, luminescence ratio (green luciferase fused to IkBa over red control in TMD8 lymphoma cells), 4 h; activity change, negative = inhibition: at 46.1 µM (top of the series)
# Method in brief: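 Cell line TMD8 (human ABC DLBCL), stably expressing tet-inducible CBG68-IkBa fusion and CBR; IMDM/0.5% FBS; cpd up to 46 uM; dox induction, 4 h, 37C/5% CO2; dual luminescence; green/red ratio; MG132 control.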
# Potency is the fitted concentration of half-maximal effect.
Compound,"activity change, negative = inhibition",Potency
Cc1c(C(=O)N2CCN(Cc3ccc4c(c3)OCO4)CC2)sc2ncnc(N3CCN(c4ccccc4)CC3)c12,inconclusive: -15.9%,–
O=C(NNCc1ccc(O)cc1)c1ccccc1Cl,–,"inconclusive: 8.91 µM [falling, partial curve]"
NC(=S)N/N=C/c1coc2cc(Cl)ccc2c1=O,–,"inconclusive: 6.51 µM [rising, full curve]"
COc1ccc(C(CNC(=O)c2c(C)nn(Cc3ccc(C)cc3)c2Cl)N2CCOCC2)cc1 (centres undefined),inconclusive: -7.02%,–
Cc1occc1C(=O)Nc1ccc2c(c1)OCO2,inactive: -18.3%,–
Cc1nc(Nc2ccncc2)c2oc3ccccc3c2n1,–,"inconclusive: 10.3 µM [falling, partial curve]"
Cc1ccc(Cc2nc(-c3ccccn3)no2)cc1,inconclusive: 0.918%,–
COc1ccc(NC(=S)NC2CCCCC2)c(OC)c1,–,"inconclusive: 22.4 µM [falling, single point]"
Cc1ccc(SCc2cc(=O)[nH]c(Nc3nc(C)c4ccccc4n3)n2)cc1,inconclusive: 4.26%,–
O=C(CSc1nc(-c2ccccc2)c(-c2ccccc2)[nH]1)N1CCN(S(=O)(=O)c2ccccc2)CC1,inconclusive: -0.89%,–
CCOc1ccc(CN2CCN(CC3CC3)CC2CCO)cc1 (centres undefined),inconclusive: -1.1%,–
C/C(=N/NC(=O)c1cc(Cl)ccc1O)C12CC3CC(CC(C3)C1)C2,inconclusive: 249%,–
CCOC(=O)C1=C(C)NC(SCC(=O)Nc2cc(C)on2)=C(C#N)C1c1cccs1 (centres undefined),–,"inconclusive: 2.59 µM [rising, partial curve, poor fit]"
CC1CCc2sc(NC(=S)NC(=O)c3ccccc3)c(C#N)c2C1 (centres undefined),inactive: 3.89%,–
NC(CO)(CO)COCc1ccccc1,inactive: -13.9%,–
O=[N+]([O-])c1ccc(OCc2nnc(-c3ccccc3)o2)cc1,inconclusive: -0.263%,–
Cc1cccc(S(=O)(=O)Nc2ccc(-c3cn4ccccc4n3)cc2)c1,–,"inconclusive: 29.1 µM [rising, partial curve, poor fit]"
CNC(=S)NNC(=O)c1cccc(C(F)(F)F)c1,inactive: -13.5%,–
COC(=O)c1ccccc1NC(=O)NCc1c(C)nn(C)c1C,–,"inconclusive: 5.01 µM [rising, partial curve, poor fit]"
Cc1cccc(NC2=Nc3ccccc3N3C2=Nc2c(c(C)nn2-c2ccccc2)C3c2ccc(O)c(O)c2)c1 (centres undefined),inactive: 15.2%,–
COc1ccc(CNC(=O)C(=O)Nc2c3c(nn2-c2ccccc2)CSC3)cc1,inactive: 11.3%,–
Cc1ccc(NC(=O)C2CCC(C(C)(C)C)CC2)cc1S(=O)(=O)N1CCOCC1 (centres undefined),–,"inconclusive: 25.9 µM [falling, partial curve, poor fit]"
COc1ccc(CNC(=O)CCC(=O)Nc2cccnc2)cc1,inactive: -4.14%,–
COc1ccccc1OCCCOc1ccc(/C=C2\SC(=O)NC2=O)cc1OC,inconclusive: -0.264%,–
Cc1ccc(CN2C(=O)NC(Cc3c[nH]c4ccccc34)C2=O)cc1 (centres undefined),inactive: -3.88%,–
C/C(CC(=O)Nc1ccc2c(c1)OCCO2)=N\NC(=O)COc1ccccc1C,inconclusive: -9.17%,–
O=C(c1ccco1)N1CCN(C(=S)NC2CC3CCC2C3)CC1 (centres undefined),inconclusive: 1.89%,–

Compound,"activity change, negative = inhibition",Potency
CCCCC[C@H](O)/C=C/[C@@H]1[C@@H](C/C=C\CCCC(=O)OC)[C@@H](O)C[C@H]1O,–,"inconclusive: 11.6 µM [falling, partial curve]"
Cc1ccc(S(=O)(=O)N2CCCCC2)cc1NC(=O)Cn1ccsc1=N,inconclusive: -7.58%,–
COc1ccc(N=Cc2sc3ccccc3c2Cl)cc1,inactive: 0.155%,–
CC(/C=N/n1cnnc1)=C\c1ccco1,inconclusive: 6.92%,–
O=[N+]([O-])c1ccc(O)c(C=Nc2ccc3nc(-c4ccccc4)[nH]c3c2)c1,–,"inconclusive: 4.11 µM [falling, single point]"
COc1ccc(C)cc1S(=O)(=O)N(C)CC(=O)N1CCCCCC1,inconclusive: 3.22%,–
COc1cccc(-n2c(-c3ccccc3)c[nH]c2=S)c1,inconclusive: -14.4%,–
Cn1cccc1CNCC(O)c1ccccc1 (centres undefined),–,"inconclusive: 0.355 µM [falling, full curve, poor fit]"
COc1ccc(-c2nc(C#N)c(N3CCCCC3)o2)cc1,inconclusive: 7.1%,–
COc1ccc(-n2c(=O)c3ccccc3n(CC(=O)Nc3cc(C)on3)c2=O)cc1OC,inconclusive: -0.394%,–
CC(/C=C/c1ccco1)=N\NC(=O)CNc1ccc2ccccc2c1,inactive: -11%,–
Cc1cc(C)n(-c2nc(N(C)C)nc(N3CCOCC3)n2)n1,inactive: -23.6%,–
O=S(=O)(c1ccc(Br)s1)N1CCNCC1,inactive: -18.6%,–
N#Cc1c(-c2cccs2)cc(-c2cccnc2)nc1N,inconclusive: -19.5%,–
COCCNC(=S)N/N=C(\C)c1cc2ccccc2o1,–,"inconclusive: 29.1 µM [cytotoxic, single point]"
O=C(CSc1nnc(Cn2c(=O)sc3ccccc32)n1-c1ccccc1)N1CCOCC1,inconclusive: 15.1%,–
COCCN(C(=S)Nc1c(C)cccc1C)C(C)c1cccs1 (centres undefined),inactive: -7.84%,–
CCN(CC)c1ccc(NC(=O)OC)cc1,inconclusive: -7.46%,–
Cc1ccc(C(=O)N2CCc3cc(CNC(=O)CSc4ccccc4)ccc32)cc1,inconclusive: 26.8%,–
O=C(N/N=C/c1ccsc1)c1cc(-c2ccncc2)nc2ccccc12,–,"inconclusive: 23.1 µM [falling, partial curve, poor fit]"
O=C1C2C(c3ccccc3)C=CC(c3ccccc3)C2C(=O)N1C1CCCCC1 (centres undefined),inconclusive: 10.2%,–
FC(F)(F)c1nnc(-c2ccccc2)nc1Sc1ccccc1,–,"inconclusive: 35.5 µM [falling, single point]"
COc1cccc(Nc2ccc(Nc3cccc(OC)c3)nn2)c1,–,"inconclusive: 0.82 µM [falling, partial curve]"
COc1ccc(NC(=O)COC(=O)CNC(=O)c2cccs2)cc1Cl,inconclusive: 9.76%,–
CCCCOc1ccc(C(=O)NNC(=S)NC(=O)CC)cc1,inactive: -0.698%,–
Cc1ccc(/C=N/NC(=O)c2csc(C)c2)o1,–,"inconclusive: 29.1 µM [falling, single point]"
CCCC[C@]12Cc3cc(OC)c(OC)cc3C(O1)C1=C(O2)C(=O)c2ccccc2C1=O,inactive: 17.9% [at 9.22 µM],–

Compound,"activity change, negative = inhibition",Potency
NS(=O)(=O)c1ccc(NC(=O)COC(=O)c2ccc([N+](=O)[O-])s2)cc1,inconclusive: -1.43%,–
COC(=O)c1sccc1-c1ccc(C(=O)Nc2cccc(Cl)c2)o1,inconclusive: 6.89%,–
Cc1cccc(NC(=S)N(Cc2cccc(Br)c2)CC2CCC(C(=O)O)CC2)c1 (centres undefined),inconclusive: 3.55%,–
CCCC(=O)N1CCC(O)(c2cccc(F)c2)CC1,inconclusive: 6.97%,–
COc1ccc(-c2nc(Cn3c(SCc4cccc(F)c4)nc4ccncc43)c(C)o2)cc1OC,–,"inconclusive: 18.4 µM [falling, partial curve, poor fit]"
CC(C)(C)C(=O)Nc1c2c(nn1-c1ccccc1)CSC2,inactive: 6.99%,–
Cc1cccn2c(=O)c3cc(C(=O)NCc4cccnc4)c(=N)n(C(C)C)c3nc12,inactive: 2.31%,–
CC(C)Oc1ccc(CNC(=O)CCC(=O)N2CC(C)Sc3ccccc32)cc1 (centres undefined),–,"inconclusive: 35.5 µM [falling, single point]"
CC(Oc1ccc(-c2nccc(-c3ccccn3)n2)cc1)C(=O)NN (centres undefined),–,"inconclusive: 20 µM [falling, partial curve]"
Cc1ccccc1-c1cc(C(=O)NCC2CC2)nn1CC1CC(c2cccc([N+](=O)[O-])c2)=NO1 (centres undefined),inconclusive: 0.287%,–
COc1ccccc1CNC(=O)CCC1N=C2c3ccccc3N=C(SCC(=O)Nc3ccc(F)cc3)N2C1=O (centres undefined),inactive: 10.9%,–
CCCc1nnc(NC(=O)c2cccnc2)s1,–,"inconclusive: 11.2 µM [falling, partial curve, poor fit]"
COc1ccc(/C=N/NC(=O)c2ccc3nc[nH]c3c2)c(OC)c1OC,–,"inconclusive: 15.8 µM [falling, single point]"
Cc1ccc(-n2c(Cn3cnc4ccccc43)nnc2SCC(=O)O)cc1,–,"inconclusive: 32.6 µM [rising, partial curve, poor fit]"
CC(C(=O)O)N1c2cccc3cccc(c23)S1(=O)=O (centres undefined),inconclusive: -0.748%,–
Cc1ccc(NC(=O)/C(C#N)=C/c2cccs2)c(C)c1,inconclusive: -0.869%,–
COc1ccc(NC(=O)Nc2cccc3c2O[C@H](CN(C)C(=O)Nc2ccc4c(c2)OCO4)[C@@H](C)CN([C@H](C)CO)C3=O)cc1,inconclusive: -1.64%,–
NC1=NC[C@H](c2ccccc2)N1CCc1cccc(F)c1,inconclusive: -4.55%,–
Cc1ccc(NC(=S)NCCc2c[nH]c3ccccc23)cc1,inactive: 4.36%,–
O=C(Nc1ccccc1-c1nnc(SCc2ccccc2)o1)c1ccccc1,–,"inconclusive: 3.16 µM [rising, full curve]"
CC(C)CC1(C(=O)NCc2cc(F)cc(C(F)(F)F)c2)C=CCN1C(=O)c1ccccc1 (centres undefined),inconclusive: -2.72%,–
Cc1ccnc(NC(=O)CCC(=O)N(CC(=O)NCc2ccc(F)cc2)Cc2ccccc2)c1,inactive: -25.6%,–
Cc1ccc(-c2cc(C(=O)N3CCCc4ccccc43)c3ccccc3n2)cc1,inactive: 6.69%,–
Cc1cccc(OCC(=O)Nc2cc(NC(=O)COc3cccc(C)c3C)cc(C(=O)O)c2)c1C,inconclusive: -0.966%,–
O=C(Nc1cccc(NC(=O)c2ccc([N+](=O)[O-])o2)c1)c1ccco1,–,"inconclusive: 25.1 µM [falling, partial curve]"
